Assay results published in publication PMC9247503, “Oligomerization and Spatial Distribution of Kvβ1.1 and Kvβ2.1 Regulatory Subunits” (Frontiers in Physiology, 2022).
These are yes or no findings as the source states them, for the method shown. Binding seen in cells or lysates may run through a third protein. Some results given as binding are weak or reduced against the parent protein; the word gives no strength.

Chains of the proteins cited; added tags and fusions are not shown.
UniProt P15384: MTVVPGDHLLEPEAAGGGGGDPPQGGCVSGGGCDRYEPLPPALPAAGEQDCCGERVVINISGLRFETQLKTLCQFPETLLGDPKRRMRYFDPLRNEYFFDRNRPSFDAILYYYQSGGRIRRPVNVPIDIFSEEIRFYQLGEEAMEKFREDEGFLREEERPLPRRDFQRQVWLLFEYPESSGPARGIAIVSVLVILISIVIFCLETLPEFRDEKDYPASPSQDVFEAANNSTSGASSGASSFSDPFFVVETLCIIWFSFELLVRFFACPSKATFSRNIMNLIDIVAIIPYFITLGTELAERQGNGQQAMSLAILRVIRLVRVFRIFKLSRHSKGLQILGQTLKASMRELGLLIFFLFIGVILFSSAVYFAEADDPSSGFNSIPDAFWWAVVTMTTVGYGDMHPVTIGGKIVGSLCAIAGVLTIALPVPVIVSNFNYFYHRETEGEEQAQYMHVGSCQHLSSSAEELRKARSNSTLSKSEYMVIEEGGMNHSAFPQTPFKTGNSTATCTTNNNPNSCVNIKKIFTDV

Key:
[1] = biological target: Kv1.3CFP (UniProt P15384); experiment: FRET or BRET; acceptor photobleaching FRET in fixed whole HEK-293 cells; CFP donor, YFP acceptor; confocal microscope
[2] = biological target: T1, Kvβ1.1CFP (mouse (from the prefix m in mKvβ1.1)) (UniProt P63143); experiment: co-IP; HEK-293 cells co-transfected, no Kv α subunit; 1 mg lysate protein in 150 mM NaCl, 50 mM HEPES, 1% Triton X-100, pH 7.4; anti-GFP antibody crosslinked to protein A Sepharose, 2 h at room temperature; blots against CFP, Kvβ1.1 or Kvβ2.1
T1 sequence: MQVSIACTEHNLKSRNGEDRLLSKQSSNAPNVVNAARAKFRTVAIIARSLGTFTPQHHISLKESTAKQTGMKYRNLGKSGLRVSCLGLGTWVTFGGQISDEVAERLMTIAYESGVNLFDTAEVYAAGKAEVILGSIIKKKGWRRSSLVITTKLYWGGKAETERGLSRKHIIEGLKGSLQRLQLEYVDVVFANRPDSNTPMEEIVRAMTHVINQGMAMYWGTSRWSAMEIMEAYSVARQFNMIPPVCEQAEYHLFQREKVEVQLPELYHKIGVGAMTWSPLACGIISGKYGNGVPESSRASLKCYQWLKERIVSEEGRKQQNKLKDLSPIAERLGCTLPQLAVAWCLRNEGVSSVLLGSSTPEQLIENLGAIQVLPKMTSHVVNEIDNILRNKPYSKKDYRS

[3] = biological target: T2, Kvβ2.1CFP (mouse (from the prefix m in mKvβ2.1)), P62482; experiment: as above; conditions: remark: other sources report otherwise
T2 chain: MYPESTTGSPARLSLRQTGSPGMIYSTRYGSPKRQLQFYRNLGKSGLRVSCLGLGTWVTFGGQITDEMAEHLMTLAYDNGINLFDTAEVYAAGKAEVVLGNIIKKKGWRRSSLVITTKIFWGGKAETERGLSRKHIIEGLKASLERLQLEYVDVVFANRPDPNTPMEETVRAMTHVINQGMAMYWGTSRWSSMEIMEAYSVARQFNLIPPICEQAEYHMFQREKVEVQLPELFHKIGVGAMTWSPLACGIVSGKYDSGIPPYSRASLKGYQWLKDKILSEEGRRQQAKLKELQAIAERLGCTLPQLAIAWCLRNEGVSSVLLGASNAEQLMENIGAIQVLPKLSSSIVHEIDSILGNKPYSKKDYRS

[4] = biological target: T1, Kvβ1.1CFP (mouse (from the prefix m in mKvβ1.1)); experiment: FRET or BRET; acceptor photobleaching FRET in fixed whole HEK-293 cells; CFP donor, YFP acceptor; confocal microscope
[5] = biological target: T1, Kvβ1.1CFP (mouse (from the prefix m in mKvβ1.1)); experiment: FRET or BRET; acceptor photobleaching FRET on cell unroofing preparations (CUPs, plasma membrane sheets) of transfected HEK-293 cells, fixed; CFP donor, YFP acceptor
[6] = biological target: T2, Kvβ2.1CFP (mouse (from the prefix m in …)); experiment: FRET or BRET; acceptor photobleaching FRET in fixed whole HEK-293 cells; CFP donor, YFP acceptor; confocal microscope; conditions: remark: other sources report otherwise
[7] = biological target: T2, Kvβ2.1CFP (mouse (from the prefix m in …)); experiment: FRET or BRET; acceptor photobleaching FRET on cell unroofing preparations (CUPs, plasma membrane sheets) of transfected HEK-293 cells, fixed; CFP donor, YFP acceptor; conditions: remark: other sources report otherwise

With Kv1.3YFP (from UniProt P15384 1-525) the binding [1] was “binds”.

B1: Kvβ1.1 (protein, UniProt P63143 1-401)
chain: T1 sequence
With B1 the binding [2] was “binds”.

B2: Kvβ2.1, P62482 1-367 (protein)
chain: T2 chain
B2 was tested, and the binding [3] was “binds”.

B3: Kvβ1.1YFP (natural protein, mouse (from the prefix m in mKvβ1.1), UniProt P63143 1-401, looked up)
chain: T1 sequence
notes: voltage-gated potassium channel regulatory subunit Kvβ1.1 (splice form 1.1 of Kvβ1), mouse by the prefix m in mKvβ1.1; also called mKvβ1.1 in pEYFP-N1; source: HEK-293, transfected; in cells or membrane sheets (FRET) and in lysate (semidenaturing gel)
For B3, the binding [4] was “binds” and the binding [5] was “binds”.

B4: Kvβ2.1YFP, P62482 1-367 (natural protein)
chain: T2 chain
B4 was tested, and the binding [6] was “binds” and the binding [7] was “binds”.

B5: Kvβ2.1YFP (natural protein, mouse (from the prefix m in mKvβ2.1), UniProt P62482 1-367, looked up)
chain: T2 chain
notes: voltage-gated potassium channel regulatory subunit Kvβ2.1, mouse by the prefix m in mKvβ2.1; also called mKvβ2.1 in pEYFP-N1; Kvb2.1 YFP; source: HEK-293, transfected; in cells or membrane sheets (FRET) and in lysate (semidenaturing gel)
With B5 the binding [4] was “binds” and the binding [5] was “binds”.

B6: Kvβ2.1 (protein, UniProt P62482 1-367)
chain: T2 chain
B6 was tested, and the binding [2] was “binds”.
